No constants are given. Whether binding was seen depends on the method and setting. Binding seen in cells or lysates may run through a third protein. These calls come from enrichment with a bait or labelling near it, and not all partners need be listed.

For this assay, the target named is VP4 used as TurboID proximity labelling bait (MYAS33 RV strain) (rotavirus A, strain MYAS33 (isolated from bats)). Description: proximity labelling; TurboID (promiscuous biotin ligase) with VP4 of the MYAS33 RV strain as bait; biotin-labelled host proteins identified; dataset iProX IPX0007242000, experiment described in ref. 19.

B1: DHX57 (protein, UniProt Q6P158 1-1386)
chain: MSSSVRRKGKPGKGGGKGSSRGGRGGRSHASKSHGSGGGGGGGGGGGGGNRKASSRIWDDGDDFCIFSESRRPSRPSNSNISKGESRPKWKPKAKVPLQTLHMTSENQEKVKALLRDLQEQDADAGSERGLSGEEEDDEPDCCNDERYWPAGQEPSLVPDLDPLEYAGLASVEPYVPEFTVSPFAVQKLSRYGFNTERCQAVLRMCDGDVGASLEHLLTQCFSETFGERMKISEAVNQISLDECMEQRQEEAFALKSICGEKFIERIQNRVWTIGLELEYLTSRFRKSKPKESTKNVQENSLEICKFYLKGNCKFGSKCRFKHEVPPNQIVGRIERSVDDSHLNAIEDASFLYELEIRFSKDHKYPYQAPLVAFYSTNENLPLACRLHISEFLYDKALTFAETSEPVVYSLITLLEEESEIVKLLTNTHHKYSDPPVNFLPVPSRTRINNPACHKTVIPNNSFVSNQIPEVEKASESEESDEDDGPAPVIVENESYVNLKKKISKRYDWQAKSVHAENGKICKQFRMKQASRQFQSILQERQSLPAWEERETILNLLRKHQVVVISGMTGCGKTTQIPQFILDDSLNGPPEKVANIICTQPRRISAISVAERVAKERAERVGLTVGYQIRLESVKSSATRLLYCTTGVLLRRLEGDTALQGVSHIIVDEVHERTEESDFLLLVLKDIVSQRPGLQVILMSATLNAELFSDYFNSCPVITIPGRTFPVDQFFLEDAIAVTRYVLQDGSPYMRSMKQISKEKLKARRNRTAFEEVEEDLRLSLHLQDQDSVKDAVPDQQLDFKQLLARYKGVSKSVIKTMSIMDFEKVNLELIEALLEWIVDGKHSYPPGAILVFLPGLAEIKMLYEQLQSNSLFNNRRSNRCVIHPLHSSLSSEEQQAVFVKPPAGVTKIIISTNIAETSITIDDVVYVIDSGKMKEKRYDASKGMESLEDTFVSQANALQRKGRAGRVASGVCFHLFTSHHYNHQLLKQQLPEIQRVPLEQLCLRIKILEMFSAHNLQSVFSRLIEPPHTDSLRASKIRLRDLGALTPDERLTPLGYHLASLPVDVRIGKLMLFGSIFRCLDPALTIAASLAFKSPFVSPWDKKEEANQKKLEFAFANSDYLALLQAYKGWQLSTKEGVRASYNYCRQNFLSGRVLQEMASLKRQFTELLSDIGFAREGLRAREIEKRAQGGDGVLDATGEEANSNAENPKLISAMLCAALYPNVVQVKSPEGKFQKTSTGAVRMQPKSAELKFVTKNDGYVHIHPSSVNYQVRHFDSPYLLYHEKIKTSRVFIRDCSMVSVYPLVLFGGGQVNVQLQRGEFVVSLDDGWIRFVAASHQVAELVKELRCELDQLLQDKIKNPSIDLCTCPRGSRIISTIVKLVTTQ
With B1, the binding result is “binds”.

B2: DDX46 (protein, UniProt Q7L014 1-1031)
chain: MGRESRHYRKRSASRGRSGSRSRSRSPSDKRSKRGDDRRSRSRDRDRRRERSRSRDKRRSRSRDRKRLRRSRSRERDRSRERRRSRSRDRRRSRSRSRGRRSRSSSPGNKSKKTENRSRSKEKTDGGESSKEKKKDKDDKEDEKEKDAGNFDQNKLEEEMRKRKERVEKWREEQRKKAMENIGELKKEIEEMKQGKKWSLEDDDDDEDDPAEAEKEGNEMEGEELDPLDAYMEEVKEEVKKFNMRSVKGGGGNEKKSGPTVTKVVTVVTTKKAVVDSDKKKGELMENDQDAMEYSSEEEEVDLQTALTGYQTKQRKLLEPVDHGKIEYEPFRKNFYVEVPELAKMSQEEVNVFRLEMEGITVKGKGCPKPIKSWVQCGISMKILNSLKKHGYEKPTPIQTQAIPAIMSGRDLIGIAKTGSGKTIAFLLPMFRHIMDQRSLEEGEGPIAVIMTPTRELALQITKECKKFSKTLGLRVVCVYGGTGISEQIAELKRGAEIIVCTPGRMIDMLAANSGRVTNLRRVTYVVLDEADRMFDMGFEPQVMRIVDNVRPDRQTVMFSATFPRAMEALARRILSKPIEVQVGGRSVVCSDVEQQVIVIEEEKKFLKLLELLGHYQESGSVIIFVDKQEHADGLLKDLMRASYPCMSLHGGIDQYDRDSIINDFKNGTCKLLVATSVAARGLDVKHLILVVNYSCPNHYEDYVHRAGRTGRAGNKGYAYTFITEDQARYAGDIIKALELSGTAVPPDLEKLWSDFKDQQKAEGKIIKKSSGFSGKGFKFDETEQALANERKKLQKAALGLQDSDDEDAAVDIDEQIESMFNSKKRVKDMAAPGTSSVPAPTAGNAEKLEIAKRLALRINAQKNLGIESQDVMQQATNAILRGGTILAPTVSAKTIAEQLAEKINAKLNYVPLEKQEEERQDGGQNESFKRYEEELEINDFPQTARWKVTSKEALQRISEYSEAAITIRGTYFPPGKEPKEGERKIYLAIESANELAVQKAKAEITRLIKEELIRLQNSYQPTNKGRYKVL
In the case of B2, the binding entry is reported as “binds”.

The values above are taken from article PMC12662691, “DDX3X Promotes Rotavirus Infection and Serves as an Antiviral Target” (Transboundary and Emerging Diseases, 2025).
